No constants are given. Whether binding was seen depends on the method and setting. Binding seen in cells or lysates may run through a third protein. Here binding means that the protein was enriched with, or labelled near, the bait; the list need not be complete.
Each substance was assayed against integrin β3 (human (endogenous in podocytes)) (UniProt P05106) (assay: affinity purification with mass spectrometry; human podocyte lysate (25 mM Tris, 150 mM NaCl, 1 mM EDTA, 1% Triton-X) immunoprecipitated 16 h with DynaBeads coated with monoclonal anti-integrin β3 (or β1) antibody; wash 1 M NaCl + 0.1% Tween 20; label-free LC-MS/MS, spectral counting; differential binder if IP counts more than twice those of the other isoform).

The chains behind the UniProt entries cited, without tags or fusion partners. Residues count along the entry.
UniProt P05106, residues 27-788: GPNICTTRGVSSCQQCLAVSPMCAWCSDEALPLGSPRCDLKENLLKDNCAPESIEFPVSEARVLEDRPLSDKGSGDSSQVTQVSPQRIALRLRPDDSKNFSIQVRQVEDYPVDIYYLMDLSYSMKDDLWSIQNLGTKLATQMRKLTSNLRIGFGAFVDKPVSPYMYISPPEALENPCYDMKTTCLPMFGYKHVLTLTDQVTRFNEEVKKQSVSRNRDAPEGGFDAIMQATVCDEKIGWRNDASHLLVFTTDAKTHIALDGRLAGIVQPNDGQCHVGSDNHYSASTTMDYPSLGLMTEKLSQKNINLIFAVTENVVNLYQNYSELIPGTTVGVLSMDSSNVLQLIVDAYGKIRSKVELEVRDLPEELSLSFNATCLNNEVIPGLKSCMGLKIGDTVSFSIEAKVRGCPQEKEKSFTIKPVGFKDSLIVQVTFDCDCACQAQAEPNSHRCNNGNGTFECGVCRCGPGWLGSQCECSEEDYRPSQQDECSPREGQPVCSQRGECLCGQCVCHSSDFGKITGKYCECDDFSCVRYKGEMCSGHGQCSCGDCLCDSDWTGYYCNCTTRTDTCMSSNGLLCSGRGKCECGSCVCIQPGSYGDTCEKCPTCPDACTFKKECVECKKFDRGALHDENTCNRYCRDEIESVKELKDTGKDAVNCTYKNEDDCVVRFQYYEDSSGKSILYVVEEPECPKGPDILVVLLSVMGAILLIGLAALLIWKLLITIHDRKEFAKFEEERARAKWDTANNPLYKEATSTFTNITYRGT
UniProt P15311: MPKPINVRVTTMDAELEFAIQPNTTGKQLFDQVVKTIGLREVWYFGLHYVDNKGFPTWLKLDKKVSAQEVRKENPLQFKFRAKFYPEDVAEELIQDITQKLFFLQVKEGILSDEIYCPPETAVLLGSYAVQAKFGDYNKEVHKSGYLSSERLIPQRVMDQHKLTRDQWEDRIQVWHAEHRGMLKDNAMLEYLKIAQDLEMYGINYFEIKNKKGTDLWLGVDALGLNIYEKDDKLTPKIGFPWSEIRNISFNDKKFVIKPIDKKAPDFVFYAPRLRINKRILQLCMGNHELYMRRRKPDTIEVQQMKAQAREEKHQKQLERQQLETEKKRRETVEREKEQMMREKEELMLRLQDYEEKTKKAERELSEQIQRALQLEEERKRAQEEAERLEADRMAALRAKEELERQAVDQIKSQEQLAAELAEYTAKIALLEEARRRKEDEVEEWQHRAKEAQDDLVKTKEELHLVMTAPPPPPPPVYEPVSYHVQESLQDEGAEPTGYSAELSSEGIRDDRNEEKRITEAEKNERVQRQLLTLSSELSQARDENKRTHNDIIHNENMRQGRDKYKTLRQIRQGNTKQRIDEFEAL
UniProt P35240: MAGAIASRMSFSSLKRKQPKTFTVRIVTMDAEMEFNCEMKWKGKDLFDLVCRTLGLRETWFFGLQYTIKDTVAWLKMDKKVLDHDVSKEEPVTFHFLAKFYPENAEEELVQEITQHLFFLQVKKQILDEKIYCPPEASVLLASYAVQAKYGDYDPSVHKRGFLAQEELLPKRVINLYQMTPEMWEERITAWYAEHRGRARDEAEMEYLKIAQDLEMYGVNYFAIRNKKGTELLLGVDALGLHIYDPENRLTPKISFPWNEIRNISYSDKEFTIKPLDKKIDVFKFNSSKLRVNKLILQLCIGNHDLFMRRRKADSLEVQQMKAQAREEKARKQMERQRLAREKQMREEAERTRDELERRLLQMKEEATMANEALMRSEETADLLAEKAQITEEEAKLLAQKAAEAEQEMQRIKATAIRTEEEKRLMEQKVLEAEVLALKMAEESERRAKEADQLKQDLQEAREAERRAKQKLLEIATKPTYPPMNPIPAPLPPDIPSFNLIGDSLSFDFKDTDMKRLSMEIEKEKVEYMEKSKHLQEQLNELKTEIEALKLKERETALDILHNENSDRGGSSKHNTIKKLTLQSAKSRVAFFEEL
UniProt P26038: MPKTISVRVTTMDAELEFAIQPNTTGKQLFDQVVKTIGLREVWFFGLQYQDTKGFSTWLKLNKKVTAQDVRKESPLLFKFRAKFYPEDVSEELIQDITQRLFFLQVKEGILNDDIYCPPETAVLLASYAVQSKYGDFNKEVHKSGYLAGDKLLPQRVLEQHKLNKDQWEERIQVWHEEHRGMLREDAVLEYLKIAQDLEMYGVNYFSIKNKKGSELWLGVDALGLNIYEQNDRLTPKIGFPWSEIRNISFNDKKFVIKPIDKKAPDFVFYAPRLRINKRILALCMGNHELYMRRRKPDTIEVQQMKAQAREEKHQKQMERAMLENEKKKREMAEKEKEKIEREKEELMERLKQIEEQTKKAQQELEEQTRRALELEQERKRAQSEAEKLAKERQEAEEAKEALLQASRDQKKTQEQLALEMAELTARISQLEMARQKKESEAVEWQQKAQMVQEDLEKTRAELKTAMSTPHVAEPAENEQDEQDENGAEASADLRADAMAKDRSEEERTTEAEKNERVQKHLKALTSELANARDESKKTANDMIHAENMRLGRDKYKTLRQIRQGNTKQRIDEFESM

binding, binds:
ezrin (from UniProt P15311 1-586), merlin (from UniProt P35240 1-595), moesin (from UniProt P26038 1-577)

From PMC5732205
